{"source": "patent US10577317B2", "about": "“Crystal forms and production methods thereof” (Sunovion Pharmaceuticals Inc., priority 2017, dated 2020)", "test": "DVS water sorption isotherm, 25° C. scanned over 0 to 95% relative humidity (hygroscopicity)", "assay_type": "physicochemical", "details": "FIG. 2E", "source_text": "In various embodiments, the hygroscopicity of crystal forms of racemic amisulpride, enantiomeric amisulpride, and enantiomeric amisulpride solvates are characterized by dynamic vapor sorption (DVS). DVS is a gravimetric technique that measures how much of a solvent is absorbed by a sample by varying the vapor concentration surrounding the sample (e.g., relative humidity) and measuring the change in mass. In the present application, DVS is used to generate water sorption isotherms, which represent the equilibrium amount of vapor sorbed as a function of steady state relative vapor pressure at a constant temperature.", "note": "The source gives many values for each of these; only a part stands here."}
{"smiles": "CCN1CCC[C@@H]1CNC(=O)c1cc(S(=O)(=O)CC)c(N)cc1OC", "note": "[(R)-amisulpride Form A, R-4-Amino-N-[(1-ethyl-2-pyrrolidinyl)methyl]-5-(ethylsulfonyl)-2-methoxybenzamide]", "values": [{"measurement": "Change Mass", "setting": "RH 1.32 %, elapse time 170.4 min", "value": 0.000, "unit": "wt %"}, {"measurement": "Change Mass", "setting": "RH 4.91 %, elapse time 352.8 min", "value": "−0.005", "unit": "wt %"}, {"measurement": "Change Mass", "setting": "RH 5.05 %, elapse time 1033.3 min", "value": 0.006, "unit": "wt %"}, {"measurement": "Change Mass", "setting": "RH 5.10 %, elapse time 694.6 min", "value": "−0.004", "unit": "wt %"}, {"measurement": "Change Mass", "setting": "RH 9.91 %, elapse time 702.6 min", "value": "−0.001", "unit": "wt %"}, {"measurement": "Change Mass", "setting": "RH 10.10 %, elapse time 363.3 min", "value": "−0.001", "unit": "wt %"}, {"measurement": "Change Mass", "setting": "RH 10.10 %, elapse time 1025.3 min", "value": 0.011, "unit": "wt %"}, {"measurement": "Change Mass", "setting": "RH 10.17 %, elapse time 686.6 min", "value": 0.002, "unit": "wt %"}, {"measurement": "Change Mass", "setting": "RH 14.90 %, elapse time 710.6 min", "value": 0.005, "unit": "wt %"}, {"measurement": "Change Mass", "setting": "RH 15.11 %, elapse time 678.6 min", "value": 0.007, "unit": "wt %"}, {"measurement": "Change Mass", "setting": "RH 15.12 %, elapse time 1017.3 min", "value": 0.016, "unit": "wt %"}, {"measurement": "Change Mass", "setting": "RH 15.14 %, elapse time 375.8 min", "value": 0.006, "unit": "wt %"}, {"measurement": "Change Mass", "setting": "RH 19.91 %, elapse time 718.6 min", "value": 0.012, "unit": "wt %"}, {"measurement": "Change Mass", "setting": "RH 20.09 %, elapse time 1009.3 min", "value": 0.021, "unit": "wt %"}, {"measurement": "Change Mass", "setting": "RH 20.10 %, elapse time 670.6 min", "value": 0.014, "unit": "wt %"}, {"measurement": "Change Mass", "setting": "RH 24.87 %, elapse time 727.6 min", "value": 0.017, "unit": "wt %"}, {"measurement": "Change Mass", "setting": "RH 24.91 %, elapse time 662.6 min", "value": 0.020, "unit": "wt %"}, {"measurement": "Change Mass", "setting": "RH 24.91 %, elapse time 1001.3 min", "value": 0.027, "unit": "wt %"}, {"measurement": "Change Mass", "setting": "RH 29.85 %, elapse time 736.6 min", "value": 0.024, "unit": "wt %"}, {"measurement": "Change Mass", "setting": "RH 30.14 %, elapse time 655.0 min", "value": 0.026, "unit": "wt %"}, {"measurement": "Change Mass", "setting": "RH 30.14 %, elapse time 993.8 min", "value": 0.032, "unit": "wt %"}, {"measurement": "Change Mass", "setting": "RH 34.86 %, elapse time 745.6 min", "value": 0.029, "unit": "wt %"}, {"measurement": "Change Mass", "setting": "RH 34.91 %, elapse time 646.5 min", "value": 0.033, "unit": "wt %"}, {"measurement": "Change Mass", "setting": "RH 34.96 %, elapse time 985.3 min", "value": 0.038, "unit": "wt %"}, {"measurement": "Change Mass", "setting": "RH 39.84 %, elapse time 975.3 min", "value": 0.043, "unit": "wt %"}, {"measurement": "Change Mass", "setting": "RH 39.88 %, elapse time 636.5 min", "value": 0.038, "unit": "wt %"}, {"measurement": "Change Mass", "setting": "RH 39.96 %, elapse time 756.6 min", "value": 0.036, "unit": "wt %"}, {"measurement": "Change Mass", "setting": "RH 44.93 %, elapse time 767.6 min", "value": 0.043, "unit": "wt %"}, {"measurement": "Change Mass", "setting": "RH 45.04 %, elapse time 965.8 min", "value": 0.049, "unit": "wt %"}, {"measurement": "Change Mass", "setting": "RH 49.83 %, elapse time 776.6 min", "value": 0.049, "unit": "wt %"}, {"measurement": "Change Mass", "setting": "RH 50.05 %, elapse time 954.7 min", "value": 0.055, "unit": "wt %"}, {"measurement": "Change Mass", "setting": "RH 54.99 %, elapse time 787.6 min", "value": 0.057, "unit": "wt %"}, {"measurement": "Change Mass", "setting": "RH 55.04 %, elapse time 945.7 min", "value": 0.062, "unit": "wt %"}, {"measurement": "Change Mass", "setting": "RH 59.98 %, elapse time 798.7 min", "value": 0.064, "unit": "wt %"}, {"measurement": "Change Mass", "setting": "RH 60.15 %, elapse time 934.7 min", "value": 0.069, "unit": "wt %"}, {"measurement": "Change Mass", "setting": "RH 64.95 %, elapse time 807.7 min", "value": 0.072, "unit": "wt %"}, {"measurement": "Change Mass", "setting": "RH 65.08 %, elapse time 923.7 min", "value": 0.078, "unit": "wt %"}, {"measurement": "Change Mass", "setting": "RH 69.88 %, elapse time 818.7 min", "value": 0.079, "unit": "wt %"}, {"measurement": "Change Mass", "setting": "RH 70.14 %, elapse time 912.7 min", "value": 0.087, "unit": "wt %"}, {"measurement": "Change Mass", "setting": "RH 74.62 %, elapse time 827.7 min", "value": 0.086, "unit": "wt %"}, {"measurement": "Change Mass", "setting": "RH 75.08 %, elapse time 901.7 min", "value": 0.098, "unit": "wt %"}, {"measurement": "Change Mass", "setting": "RH 79.72 %, elapse time 836.7 min", "value": 0.097, "unit": "wt %"}, {"measurement": "Change Mass", "setting": "RH 80.48 %, elapse time 892.7 min", "value": 0.109, "unit": "wt %"}, {"measurement": "Change Mass", "setting": "RH 84.65 %, elapse time 845.7 min", "value": 0.113, "unit": "wt %"}, {"measurement": "Change Mass", "setting": "RH 85.33 %, elapse time 883.7 min", "value": 0.131, "unit": "wt %"}, {"measurement": "Change Mass", "setting": "RH 89.55 %, elapse time 854.7 min", "value": 0.131, "unit": "wt %"}, {"measurement": "Change Mass", "setting": "RH 90.11 %, elapse time 874.7 min", "value": 0.143, "unit": "wt %"}, {"measurement": "Change Mass", "setting": "RH 94.65 %, elapse time 865.7 min", "value": 0.156, "unit": "wt %"}]}
